# Experimental data reported in publication PMC4173157.
# These are yes or no findings as the source states them, for the method shown. Binding seen in cells or lysates may run through a third protein. Tags and fused reporters may be left off the sequences shown.
# Target: bacterially expressed GST-14-3-3 (human)
# Assay: pull-down; GST-14-3-3 added to lysates of mock- or UV-treated cells (293, HCT116, U2OS) and retrieved; blot for tagged RBM7 or ZCCHC8; also a time course after UV-C, ATR or CHK1 inhibitors, control or MK2 siRNA; only the target purified
row,Binder,binding
1,"GFP-RBM7-S136A (protein, UniProt Q9Y580 1-266) MGAAAAEADRTLFVGNLETKVTEELLFELFHQAGPVIKVKIPKDKDGKPKQFAFVNFKHEVSVPYAMNLLNGIKLYGRPIKIQFRSGSSHAPQDVSLSYPQHHVGNSSPTSTSPSRYERTMDNMTSSAQIIQRSFASPENFQRQAVMNSALRQMSYGGKFGSSPLDQSGFSPSVQSHSHSFNQSSSSQWRQGTPSSQRKVRMNSYPYLADRHYSREQRYTDHGSDHHYRGKRDDFFYEDRNHDDWSHDYDNRRDSSRDGKWRSSRH",no binding
2,"GFP-RBM7-S204A (protein, UniProt Q9Y580 1-266) MGAAAAEADRTLFVGNLETKVTEELLFELFHQAGPVIKVKIPKDKDGKPKQFAFVNFKHEVSVPYAMNLLNGIKLYGRPIKIQFRSGSSHAPQDVSLSYPQHHVGNSSPTSTSPSRYERTMDNMTSSAQIIQRSFSSPENFQRQAVMNSALRQMSYGGKFGSSPLDQSGFSPSVQSHSHSFNQSSSSQWRQGTPSSQRKVRMNAYPYLADRHYSREQRYTDHGSDHHYRGKRDDFFYEDRNHDDWSHDYDNRRDSSRDGKWRSSRH",no binding
3,"GFP-RBM7 with both serines mutated to alanine (S136A/S204A) (protein, UniProt Q9Y580 1-266) MGAAAAEADRTLFVGNLETKVTEELLFELFHQAGPVIKVKIPKDKDGKPKQFAFVNFKHEVSVPYAMNLLNGIKLYGRPIKIQFRSGSSHAPQDVSLSYPQHHVGNSSPTSTSPSRYERTMDNMTSSAQIIQRSFASPENFQRQAVMNSALRQMSYGGKFGSSPLDQSGFSPSVQSHSHSFNQSSSSQWRQGTPSSQRKVRMNAYPYLADRHYSREQRYTDHGSDHHYRGKRDDFFYEDRNHDDWSHDYDNRRDSSRDGKWRSSRH",no binding
